# Literature values in patent US20110262477A1 (priority 2008, published 2011).
# Details: imported rapidly by blood cells (Thiel et al., 2003); cited from earlier work
structure (smiles),measurement,value
Nc1ncnc2c1ncn2[C@@H]1O[C@H](CO)[C@@H](O)[C@H]1O [adenosine],half life of extracellular adenosine,< 1 min
